# Test results from patent US20080057028A1.
# The chains behind the UniProt entries cited, without tags or fusion partners. Where a name states a change or a piece, a line headed by the entry shows the natural chain unless it says otherwise. A line that says so, or that is headed by a name, gives the form on record, which may keep a tag or linker.
# VEGF165 (P15692, form named): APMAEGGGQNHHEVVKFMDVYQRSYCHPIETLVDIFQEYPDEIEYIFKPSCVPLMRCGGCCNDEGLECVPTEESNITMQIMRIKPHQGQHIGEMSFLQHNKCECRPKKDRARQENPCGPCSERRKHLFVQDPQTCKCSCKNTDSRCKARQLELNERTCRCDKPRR
# UniProt P49767: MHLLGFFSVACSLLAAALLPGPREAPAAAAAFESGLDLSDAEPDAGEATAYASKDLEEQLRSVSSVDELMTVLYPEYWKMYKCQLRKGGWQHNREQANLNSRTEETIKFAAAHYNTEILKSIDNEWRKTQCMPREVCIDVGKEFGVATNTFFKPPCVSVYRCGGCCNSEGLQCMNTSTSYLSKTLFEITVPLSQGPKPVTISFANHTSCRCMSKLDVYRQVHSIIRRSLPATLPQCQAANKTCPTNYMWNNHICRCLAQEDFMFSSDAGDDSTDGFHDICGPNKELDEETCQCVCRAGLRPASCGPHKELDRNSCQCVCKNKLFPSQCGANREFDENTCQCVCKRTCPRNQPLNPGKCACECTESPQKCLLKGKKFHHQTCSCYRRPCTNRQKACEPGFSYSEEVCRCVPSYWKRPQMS
# Results are given in words; binding and its absence hold for the method and conditions named. Binding seen in cells or lysates may run through a third protein. Some entries that bind do so weakly or less than the wild type. For part of these data: Sequences can lack the tags named with a protein.
# Columns and labels:
# [1] = target: T1, NRP-1-Fc construct (extracellular domain portion of murine NRP-1 fused to the Fc portion of human IgG1) (mouse; human) (UniProt P97333); test: co-precipitation of 35S-labeled VEGF165 medium with NRP-1-IgG, with and without heparin
# T1 sequence: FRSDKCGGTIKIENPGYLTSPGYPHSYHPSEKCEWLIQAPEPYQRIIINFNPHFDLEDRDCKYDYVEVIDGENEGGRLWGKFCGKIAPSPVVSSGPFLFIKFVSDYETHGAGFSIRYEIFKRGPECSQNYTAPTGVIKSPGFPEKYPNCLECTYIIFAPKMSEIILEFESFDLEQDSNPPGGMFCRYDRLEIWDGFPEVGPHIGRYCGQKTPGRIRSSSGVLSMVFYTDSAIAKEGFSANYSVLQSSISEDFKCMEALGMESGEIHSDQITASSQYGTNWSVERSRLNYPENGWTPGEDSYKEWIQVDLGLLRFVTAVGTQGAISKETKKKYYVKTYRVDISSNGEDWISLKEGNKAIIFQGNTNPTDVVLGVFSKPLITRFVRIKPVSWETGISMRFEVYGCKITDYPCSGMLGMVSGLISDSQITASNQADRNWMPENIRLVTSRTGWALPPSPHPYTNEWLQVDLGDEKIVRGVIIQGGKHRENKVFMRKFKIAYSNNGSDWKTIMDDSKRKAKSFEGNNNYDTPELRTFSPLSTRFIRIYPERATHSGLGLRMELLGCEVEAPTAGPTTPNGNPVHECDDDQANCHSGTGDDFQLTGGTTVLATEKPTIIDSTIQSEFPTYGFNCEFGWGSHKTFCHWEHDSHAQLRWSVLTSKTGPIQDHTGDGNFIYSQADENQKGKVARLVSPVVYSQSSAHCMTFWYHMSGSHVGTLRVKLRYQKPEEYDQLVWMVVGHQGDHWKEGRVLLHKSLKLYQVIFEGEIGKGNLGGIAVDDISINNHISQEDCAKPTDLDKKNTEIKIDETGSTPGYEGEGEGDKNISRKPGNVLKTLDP
# [2] = target: T1, NRP-1-Fc construct (extracellular domain portion of murine NRP-1 fused to the Fc portion of human IgG1) (mouse; human); test: co-precipitation of 35S-labeled VEGF-C medium with NRP-1-IgG on Protein A-Sepharose, SDS-PAGE
# [3] = target: hNRP-2 a17-IgG fusion protein (extracellular domain of human neuropilin-2, a17 isoform, fused to the human IgG1 Fc tail) (human) [IgG part: P01857]; test: co-precipitation of 35S-labeled VEGF-C medium with hNRP-2 a17-IgG on Protein A-Sepharose, SDS-PAGE
binding [1],binding [2],binding [3],Substance
binds,,,VEGF165 (from UniProt P15692 27-191) (ligand)
,binds,binds,VEGF-C 29 kD isoform (partially processed form of human VEGF-C) (from UniProt P49767 32-227) (ligand)
